In US11903955B2, “Methods of treating heart failure with reduced ejection fraction” (ASTRAZENECA AB, priority 2019, dated 2024):

Test system: patients with chronic heart failure with reduced ejection fraction (LVEF ≤40%)
Experimental: Data from all randomly assigned patients were included in the analyses of the primary and secondary outcomes, according to the intention-to-treat principle. Baseline characteristics were summarized as means and standard deviations, medians and inter-quartile ranges, or percentages. Longitudinal measures, such as glycated hemoglobin level (HbA1c) and body weight, were analyzed using mixed model for repeated measurements, and the least-squares mean differences between treatment groups were estimated, together with 95% confidence intervals. Time-to-event data were evaluated with the use of Kaplan-Meier estimates and Cox proportional hazards models, stratified by diabetes status, with history of heart failure hospitalization and treatment as fixed-effect factors (for the renal endpoint, baseline eGFR was included instead of history of heart failure hospitalization); hazard ratios, 95% confidence intervals, and two-sided P values were calculated with the use of the Cox models.

CCOc1ccc(Cc2cc([C@@H]3O[C@H](CO)[C@@H](O)[C@H](O)[C@H]3O)ccc2Cl)cc1 [Dapagliflozin, dapagliflozin]
Change in hematocrit (baseline to 8 month (Visit 6)): 2.31 ± 3.90%
Hematocrit, between group difference (95% CI) (baseline to 8 month, dapagliflozin vs placebo): 2.49 (2.26 to 2.73), p < 0.001%
